Laboratory results from the supplement of paper PMC10849652.
Some of the results follow.

Amino acid sequences for entries named in this document (tags omitted). A change or cut given only in a name is not applied to a line headed by its entry.
UniProt P46977: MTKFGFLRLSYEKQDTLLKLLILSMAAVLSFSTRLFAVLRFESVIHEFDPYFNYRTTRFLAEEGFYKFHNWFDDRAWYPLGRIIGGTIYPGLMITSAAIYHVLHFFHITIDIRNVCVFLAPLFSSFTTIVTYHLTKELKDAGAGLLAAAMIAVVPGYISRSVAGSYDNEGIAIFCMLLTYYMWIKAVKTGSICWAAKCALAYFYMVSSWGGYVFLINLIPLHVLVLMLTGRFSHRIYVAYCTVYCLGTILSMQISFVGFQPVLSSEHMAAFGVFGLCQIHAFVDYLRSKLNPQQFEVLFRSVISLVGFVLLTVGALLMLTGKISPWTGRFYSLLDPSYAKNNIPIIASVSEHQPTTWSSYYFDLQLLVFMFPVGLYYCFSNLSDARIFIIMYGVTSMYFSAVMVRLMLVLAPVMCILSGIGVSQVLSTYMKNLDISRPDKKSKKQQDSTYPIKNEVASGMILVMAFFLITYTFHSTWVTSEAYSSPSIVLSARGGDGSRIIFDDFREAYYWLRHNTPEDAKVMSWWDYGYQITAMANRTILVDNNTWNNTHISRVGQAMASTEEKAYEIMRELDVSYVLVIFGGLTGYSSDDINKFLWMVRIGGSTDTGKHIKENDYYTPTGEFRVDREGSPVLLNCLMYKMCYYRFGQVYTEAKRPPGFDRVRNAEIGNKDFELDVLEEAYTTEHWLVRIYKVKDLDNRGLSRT
UniProt P61764, whole entry, looked up: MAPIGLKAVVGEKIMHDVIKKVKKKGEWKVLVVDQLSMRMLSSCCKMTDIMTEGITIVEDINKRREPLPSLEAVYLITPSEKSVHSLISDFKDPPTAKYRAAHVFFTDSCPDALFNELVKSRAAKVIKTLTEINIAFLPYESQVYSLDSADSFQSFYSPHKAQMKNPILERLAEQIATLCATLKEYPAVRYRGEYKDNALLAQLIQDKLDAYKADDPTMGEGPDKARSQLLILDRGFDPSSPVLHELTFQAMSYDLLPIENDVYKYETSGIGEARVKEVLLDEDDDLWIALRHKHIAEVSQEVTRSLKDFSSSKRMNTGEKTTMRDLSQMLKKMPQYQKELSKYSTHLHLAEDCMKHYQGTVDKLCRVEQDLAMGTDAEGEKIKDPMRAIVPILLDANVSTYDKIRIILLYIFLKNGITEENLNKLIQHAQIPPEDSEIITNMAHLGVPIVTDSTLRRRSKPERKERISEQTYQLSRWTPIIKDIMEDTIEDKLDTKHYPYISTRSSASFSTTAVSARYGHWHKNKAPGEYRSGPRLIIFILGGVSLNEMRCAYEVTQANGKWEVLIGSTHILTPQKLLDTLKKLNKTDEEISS
UniProt O00506, whole entry, looked up: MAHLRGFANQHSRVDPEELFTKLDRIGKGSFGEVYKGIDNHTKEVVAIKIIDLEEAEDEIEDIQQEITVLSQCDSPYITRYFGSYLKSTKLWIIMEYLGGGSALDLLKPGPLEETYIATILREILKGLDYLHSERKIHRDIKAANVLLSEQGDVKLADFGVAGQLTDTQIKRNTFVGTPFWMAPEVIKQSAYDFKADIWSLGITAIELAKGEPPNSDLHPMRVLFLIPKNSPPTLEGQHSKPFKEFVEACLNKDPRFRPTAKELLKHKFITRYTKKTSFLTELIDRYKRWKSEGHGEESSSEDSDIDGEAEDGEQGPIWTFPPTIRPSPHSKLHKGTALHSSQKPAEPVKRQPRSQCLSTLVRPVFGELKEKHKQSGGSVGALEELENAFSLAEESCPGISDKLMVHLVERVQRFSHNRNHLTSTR
UniProt O75529: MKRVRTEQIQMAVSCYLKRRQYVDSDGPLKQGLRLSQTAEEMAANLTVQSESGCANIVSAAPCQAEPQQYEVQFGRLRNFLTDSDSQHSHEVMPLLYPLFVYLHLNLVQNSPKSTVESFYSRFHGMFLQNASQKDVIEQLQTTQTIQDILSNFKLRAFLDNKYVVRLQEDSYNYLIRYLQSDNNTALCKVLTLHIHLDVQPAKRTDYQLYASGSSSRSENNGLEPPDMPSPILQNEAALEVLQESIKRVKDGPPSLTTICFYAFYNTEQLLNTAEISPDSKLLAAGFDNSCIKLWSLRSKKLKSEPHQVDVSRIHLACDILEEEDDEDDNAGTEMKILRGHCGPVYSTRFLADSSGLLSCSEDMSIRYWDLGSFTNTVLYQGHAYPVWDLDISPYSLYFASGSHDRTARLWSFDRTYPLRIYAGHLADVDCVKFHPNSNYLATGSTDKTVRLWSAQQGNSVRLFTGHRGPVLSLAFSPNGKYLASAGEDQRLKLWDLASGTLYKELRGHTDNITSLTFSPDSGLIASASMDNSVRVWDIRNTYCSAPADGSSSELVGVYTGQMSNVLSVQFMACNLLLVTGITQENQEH
UniProt O15260: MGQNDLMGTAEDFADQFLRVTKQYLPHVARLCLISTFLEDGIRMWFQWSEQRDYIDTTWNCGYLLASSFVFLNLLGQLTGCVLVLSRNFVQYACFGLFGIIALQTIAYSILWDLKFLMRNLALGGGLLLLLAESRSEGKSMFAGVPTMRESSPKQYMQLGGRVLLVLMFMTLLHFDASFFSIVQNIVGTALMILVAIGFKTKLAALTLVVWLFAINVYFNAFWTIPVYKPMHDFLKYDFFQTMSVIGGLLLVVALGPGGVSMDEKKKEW
UniProt Q9Y5B9, whole entry, looked up: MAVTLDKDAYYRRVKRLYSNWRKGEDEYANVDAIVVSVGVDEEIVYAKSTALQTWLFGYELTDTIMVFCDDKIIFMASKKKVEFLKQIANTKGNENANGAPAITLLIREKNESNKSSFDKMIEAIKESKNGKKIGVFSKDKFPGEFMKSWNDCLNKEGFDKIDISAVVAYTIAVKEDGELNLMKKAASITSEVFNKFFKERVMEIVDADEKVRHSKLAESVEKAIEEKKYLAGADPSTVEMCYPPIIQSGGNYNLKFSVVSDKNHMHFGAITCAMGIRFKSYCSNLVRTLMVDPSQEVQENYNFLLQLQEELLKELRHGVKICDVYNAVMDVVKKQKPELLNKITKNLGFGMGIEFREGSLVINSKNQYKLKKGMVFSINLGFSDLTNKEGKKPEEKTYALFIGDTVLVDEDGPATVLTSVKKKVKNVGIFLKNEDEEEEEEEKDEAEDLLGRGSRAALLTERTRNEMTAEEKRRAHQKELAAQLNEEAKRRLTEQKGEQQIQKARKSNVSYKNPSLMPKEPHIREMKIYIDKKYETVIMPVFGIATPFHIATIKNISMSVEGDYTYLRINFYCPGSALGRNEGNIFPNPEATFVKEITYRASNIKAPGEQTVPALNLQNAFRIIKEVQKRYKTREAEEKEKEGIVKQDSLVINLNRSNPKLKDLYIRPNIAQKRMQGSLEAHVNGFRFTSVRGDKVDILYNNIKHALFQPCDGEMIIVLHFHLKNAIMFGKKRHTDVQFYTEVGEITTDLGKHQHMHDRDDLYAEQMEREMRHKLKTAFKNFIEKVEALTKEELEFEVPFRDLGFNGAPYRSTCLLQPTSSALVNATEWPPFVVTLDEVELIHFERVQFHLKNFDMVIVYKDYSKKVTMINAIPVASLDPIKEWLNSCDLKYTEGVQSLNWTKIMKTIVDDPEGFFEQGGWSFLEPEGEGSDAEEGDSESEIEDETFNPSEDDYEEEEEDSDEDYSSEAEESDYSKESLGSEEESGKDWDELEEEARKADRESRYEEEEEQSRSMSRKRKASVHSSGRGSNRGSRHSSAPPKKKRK
UniProt P49848, whole entry, looked up: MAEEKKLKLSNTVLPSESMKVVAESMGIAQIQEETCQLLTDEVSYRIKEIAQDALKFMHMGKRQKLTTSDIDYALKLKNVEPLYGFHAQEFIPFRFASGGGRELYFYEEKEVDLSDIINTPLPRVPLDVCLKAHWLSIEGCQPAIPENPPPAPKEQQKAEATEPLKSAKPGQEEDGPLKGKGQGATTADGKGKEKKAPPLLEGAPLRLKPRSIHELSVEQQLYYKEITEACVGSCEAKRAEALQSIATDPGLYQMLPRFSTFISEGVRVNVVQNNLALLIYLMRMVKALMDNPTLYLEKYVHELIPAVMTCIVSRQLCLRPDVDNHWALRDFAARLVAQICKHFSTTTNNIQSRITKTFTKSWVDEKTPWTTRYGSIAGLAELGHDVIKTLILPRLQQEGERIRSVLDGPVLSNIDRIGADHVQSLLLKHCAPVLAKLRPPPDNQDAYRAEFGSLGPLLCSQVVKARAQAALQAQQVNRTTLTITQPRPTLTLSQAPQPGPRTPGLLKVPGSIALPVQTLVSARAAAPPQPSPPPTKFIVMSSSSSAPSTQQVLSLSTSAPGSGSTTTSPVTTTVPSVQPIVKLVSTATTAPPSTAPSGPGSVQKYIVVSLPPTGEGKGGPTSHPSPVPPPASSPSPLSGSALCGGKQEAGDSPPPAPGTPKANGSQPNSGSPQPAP
UniProt O60506: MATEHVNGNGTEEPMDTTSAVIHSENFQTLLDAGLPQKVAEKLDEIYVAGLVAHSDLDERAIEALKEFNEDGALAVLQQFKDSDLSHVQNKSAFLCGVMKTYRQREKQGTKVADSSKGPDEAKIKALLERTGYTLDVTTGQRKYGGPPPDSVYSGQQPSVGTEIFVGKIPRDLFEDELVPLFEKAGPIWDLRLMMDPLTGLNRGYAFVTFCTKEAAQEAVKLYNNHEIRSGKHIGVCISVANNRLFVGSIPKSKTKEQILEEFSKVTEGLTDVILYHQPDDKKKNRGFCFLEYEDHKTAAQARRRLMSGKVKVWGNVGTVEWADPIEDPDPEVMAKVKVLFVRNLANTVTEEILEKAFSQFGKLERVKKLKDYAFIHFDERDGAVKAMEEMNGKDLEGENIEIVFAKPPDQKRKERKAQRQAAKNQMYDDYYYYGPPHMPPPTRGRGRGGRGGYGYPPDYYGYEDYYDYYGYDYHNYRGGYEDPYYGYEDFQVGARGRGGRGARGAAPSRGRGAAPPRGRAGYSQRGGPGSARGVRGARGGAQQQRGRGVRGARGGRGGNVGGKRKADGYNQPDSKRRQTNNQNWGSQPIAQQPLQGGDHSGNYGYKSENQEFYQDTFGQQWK
UniProt Q96BN2: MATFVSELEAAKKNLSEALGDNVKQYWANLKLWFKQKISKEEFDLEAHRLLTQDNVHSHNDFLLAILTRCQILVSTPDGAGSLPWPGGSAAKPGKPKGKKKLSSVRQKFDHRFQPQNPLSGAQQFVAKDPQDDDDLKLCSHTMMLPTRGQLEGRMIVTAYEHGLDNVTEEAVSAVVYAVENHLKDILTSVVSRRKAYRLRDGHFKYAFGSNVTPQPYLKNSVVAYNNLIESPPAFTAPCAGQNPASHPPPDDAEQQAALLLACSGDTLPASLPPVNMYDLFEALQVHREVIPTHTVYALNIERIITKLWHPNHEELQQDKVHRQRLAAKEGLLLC
UniProt Q9UH65: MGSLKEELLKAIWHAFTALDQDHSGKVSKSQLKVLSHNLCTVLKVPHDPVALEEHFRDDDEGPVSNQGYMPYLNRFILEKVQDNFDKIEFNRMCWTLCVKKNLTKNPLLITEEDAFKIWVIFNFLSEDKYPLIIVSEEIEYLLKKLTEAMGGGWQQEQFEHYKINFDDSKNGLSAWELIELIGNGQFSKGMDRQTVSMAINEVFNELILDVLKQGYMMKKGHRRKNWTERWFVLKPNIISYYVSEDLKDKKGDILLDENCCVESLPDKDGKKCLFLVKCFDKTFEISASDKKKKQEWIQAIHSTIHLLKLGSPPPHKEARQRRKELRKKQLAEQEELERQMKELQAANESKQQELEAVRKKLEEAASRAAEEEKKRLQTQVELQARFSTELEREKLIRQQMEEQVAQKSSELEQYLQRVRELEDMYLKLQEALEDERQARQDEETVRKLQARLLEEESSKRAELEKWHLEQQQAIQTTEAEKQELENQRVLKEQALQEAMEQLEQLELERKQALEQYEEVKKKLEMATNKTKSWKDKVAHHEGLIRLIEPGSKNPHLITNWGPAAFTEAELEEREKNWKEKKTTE
UniProt O75683: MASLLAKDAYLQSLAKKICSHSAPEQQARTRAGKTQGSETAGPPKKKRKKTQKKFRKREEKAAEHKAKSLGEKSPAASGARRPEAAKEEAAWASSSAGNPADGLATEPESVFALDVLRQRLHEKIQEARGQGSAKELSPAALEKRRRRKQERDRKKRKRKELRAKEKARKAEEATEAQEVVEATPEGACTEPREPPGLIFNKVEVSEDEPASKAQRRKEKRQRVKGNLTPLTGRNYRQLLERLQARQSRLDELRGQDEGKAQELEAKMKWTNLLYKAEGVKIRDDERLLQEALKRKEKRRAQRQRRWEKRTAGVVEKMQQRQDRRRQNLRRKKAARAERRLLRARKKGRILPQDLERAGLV
UniProt Q9H7L9: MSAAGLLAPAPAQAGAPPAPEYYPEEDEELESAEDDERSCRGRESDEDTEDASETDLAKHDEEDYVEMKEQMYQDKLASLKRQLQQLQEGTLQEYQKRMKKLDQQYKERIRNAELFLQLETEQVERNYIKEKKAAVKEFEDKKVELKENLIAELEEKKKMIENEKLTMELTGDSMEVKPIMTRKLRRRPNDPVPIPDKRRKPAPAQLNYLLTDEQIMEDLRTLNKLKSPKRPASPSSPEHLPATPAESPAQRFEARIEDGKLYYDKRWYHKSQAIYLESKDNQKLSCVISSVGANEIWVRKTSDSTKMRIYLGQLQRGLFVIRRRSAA

Tests used:
Experiment in all cases: log2 fold change, soluble protein after heating vs DMSO (PISA); higher = thermal stabilisation; K562 lysate, 10 uM; active = over 0.2 and 3.5 SD of the protein, either way, in both replicates (recomputed)
[1] = compound: Cc1cn(-c2cc(NC(=O)c3ccc(C)c(Nc4nccc(-c5cccnc5)n4)c3)cc(C(F)(F)F)c2)cn1 [nilotinib]
Procedure, shortened: (§1)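 Dounce homogenisation of K562 pellets in PBS pH 7.4 with 1 mM MgCl2 produced a crude extract, used at 1 mg/mL protein. Exposure to 10 μM compound lasted 30 min, and aliquots were then heated for 3 min across 48°C-58°C, pooled and brought to 0.5% NP-40 at 4°C. The supernatant after 21,000xg for 90 min was quantified by TMTpro 16plex LC-MS/MS with channel sums equalised. Duplicate values are given as log-two fold change in thermal stability relative to solvent controls.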

[2] = compound: Cc1nc(Nc2n[nH]c3c2CN(C(=O)N[C@H](CN(C)C)c2ccccc2)C3(C)C)c2sccc2n1
Procedure, shortened: as §1

[3] = compound: Cc1nc(Nc2ncc(C(=O)Nc3c(C)cccc3Cl)s2)cc(N2CCN(CCO)CC2)n1 [dasatinib]
Procedure, shortened: as §1

[4] = compound: Cc1ncc(-c2ccnc(Nc3ccc(S(C)(=O)=O)cc3)n2)n1C(C)C
Procedure, shortened: as §1

[5] = compound: Cn1cc(-c2ccc3c(c2)CCN3C(=O)Cc2cccc(C(F)(F)F)c2)c2c(N)ncnc21
Procedure, shortened: as §1

[6] = compound: Cn1cc(CNCC2CCN(c3ncc(C(=O)NO)cn3)CC2)c2ccccc21 [quisinostat]
Procedure, shortened: as §1

[7] = compound: Cn1cncc1[C@@](N)(c1ccc(Cl)cc1)c1ccc2c(c1)c(-c1cccc(Cl)c1)cc(=O)n2C [tipifarnib]
Procedure, shortened: as §1

[8] = compound: NC(=O)Nc1cc(-c2cccc(F)c2)sc1C(=O)N[C@H]1CCCNC1
Procedure, shortened: as §1

[9] = compound: NC(=O)c1cnc(N[C@@H]2CCCC[C@@H]2N)nc1Nc1cccc(-n2nccn2)c1
Procedure, shortened: as §1

[10] = compound: NC1(c2ccc(-c3nc4ccn5c(=O)[nH]nc5c4cc3-c3ccccc3)cc2)CCC1
Procedure, shortened: as §1

[11] = compound: NCC(=O)Nc1ccc(-n2nc(C(F)(F)F)cc2-c2ccc3c(ccc4ccccc43)c2)cc1
Procedure, shortened: as §1

[12] = compound: O=C(CCCCCCC(=O)Nc1ccccc1)NO [vorinostat]
Procedure, shortened: as §1

[13] = compound: O=C(O)c1ccc2c(c1)nc(Nc1cccc(Cl)c1)c1ccncc12 [silmitasertib]
Procedure, shortened: as §1

[14] = compound: O=C1NC(=O)C(c2cnc3ccccn23)=C1c1cn2c3c(cc(F)cc13)CN(C(=O)N1CCCCC1)CC2
Procedure, shortened: as §1

[15] = compound: c1cn2cc(-c3ccc4cn[nH]c4c3)nc(Nc3ccc(N4CCOCC4)cc3)c2n1 [entospletinib]
Procedure, shortened: as §1

Measured: log2 fold change

STT3A (UniProt P46977)
inactive: [1] -0.001 | [2] 0.008 | [3] -0.044 | [4] -0.033 | [5] -0.012 | [6] 0.001 | [7] -0.034 | [8] 0 | [9] 0.02 | [10] 0.012 | [11] -0.063 | [12] 0.066 | [13] 0.03 | [14] -0.038 | [15] 0.014

STXBP1 (UniProt P61764)
inactive: [1] 0.014 | [2] 0.022 | [3] -0.076 | [4] -0.033 | [5] -0.039 | [6] -0.041 | [7] -0.041 | [8] 0.039 | [9] -0.031 | [10] 0.01 | [11] 0.052 | [12] -0.039 | [13] 0.041 | [14] 0.012 | [15] -0.004

STK25 (UniProt O00506)
inactive: [1] 0.037 | [2] 0.265 | [3] 0.235 | [4] 0.026 | [5] 0.059 | [6] 0.013 | [7] -0.027 | [8] 0.165 | [9] 0.032 | [10] -0.009 | [11] -0.024 | [12] -0.06 | [13] 0.051 | [14] -0.03 | [15] -0.043

TAF5L (UniProt O75529)
inactive: [1] 0.033 | [2] 0.064 | [3] -0.003 | [4] 0.098 | [5] -0.09 | [6] -0.115 | [7] -0.104 | [8] -0.175 | [10] 0.093 | [11] -0.152 | [12] -0.152 | [13] -0.072 | [14] -0.021 | [15] 0.082

TAB2 (UniProt Q9NYJ8)
inactive: [1] 0.01 | [2] 0.071 | [3] 0.001 | [4] -0.025 | [5] -0.014 | [6] -0.078 | [7] -0.095 | [8] 0.016 | [9] 0.061 | [10] 0.105 | [11] -0.007 | [12] -0.012 | [13] 0.176 | [14] 0.023 | [15] 0.078

STX16 isoform 2 (UniProt O14662)
inactive: [1] 0.019 | [2] -0.037 | [3] -0.048 | [4] -0.039 | [5] -0.012 | [6] 0.068 | [7] -0.01 | [8] -0.016 | [9] 0.041 | [10] 0.041 | [11] -0.018 | [12] -0.115 | [13] -0.041 | [14] -0.019 | [15] -0.016

TAF11 (UniProt Q15544)
inactive: [1] 0.05 | [2] -0.049 | [3] -0.142 | [4] -0.034 | [5] -0.051 | [6] -0.085 | [7] 0.057 | [8] 0.046 | [9] -0.03 | [11] -0.005 | [14] 0.05 | [15] -0.073

SURF4 (UniProt O15260)
inactive: [1] -0.032 | [2] -0.018 | [3] -0.03 | [4] -0.026 | [5] 0.004 | [6] -0.013 | [7] -0.09 | [8] 0.002 | [9] 0.012 | [10] -0.027 | [11] -0.022 | [12] 0.004 | [13] 0.022 | [14] -0.025 | [15] 0.021

SUPT16H (UniProt Q9Y5B9)
inactive: [1] -0.014 | [2] 0.024 | [3] 0.021 | [4] -0.004 | [5] 0.022 | [6] -0.015 | [7] 0.026 | [8] 0.004 | [9] 0.012 | [10] -0.014 | [11] -0.003 | [12] -0.022 | [13] 0 | [14] -0.008 | [15] -0.012

STT3B (UniProt Q8TCJ2)
inactive: [1] -0.003 | [2] 0.009 | [3] 0.018 | [4] -0.037 | [5] 0.033 | [6] -0.099 | [7] -0.041 | [8] 0 | [9] 0.017 | [10] -0.028 | [11] -0.056 | [12] 0.118 | [13] -0.009 | [14] -0.049 | [15] 0.01

SUPT6H (UniProt Q7KZ85)
inactive: [1] 0.021 | [2] -0.034 | [3] -0.042 | [4] -0.01 | [5] 0.054 | [6] -0.047 | [7] -0.016 | [8] 0.035 | [9] 0.022 | [10] 0.054 | [11] 0.023 | [12] -0.12 | [13] 0.06 | [14] -0.029 | [15] 0.017

TAF6 isoform 3 (UniProt P49848)
inactive: [1] 0.027 | [2] 0.02 | [3] -0.029 | [4] 0.05 | [5] -0.016 | [6] -0.147 | [7] 0.039 | [8] 0.042 | [9] -0.059 | [10] 0.024 | [11] 0.066 | [12] -0.075 | [13] 0.078 | [14] -0.002 | [15] 0.024

SYNCRIP (UniProt O60506)
inactive: [1] -0.026 | [2] -0.002 | [3] -0.013 | [4] -0.019 | [5] -0.006 | [6] 0.047 | [7] 0.032 | [8] -0.013 | [9] 0.009 | [10] 0.01 | [11] -0.005 | [12] 0.049 | [13] 0.008 | [14] -0.028 | [15] 0.014

TADA1 (UniProt Q96BN2)
inactive: [1] 0.003 | [2] 0.025 | [3] 0.013 | [4] -0.07 | [5] -0.109 | [6] -0.09 | [7] -0.022 | [8] 0.05 | [9] -0.025 | [10] 0.028 | [11] 0.001 | [12] -0.068 | [13] 0.008 | [14] 0.004 | [15] -0.125

SWAP70 (UniProt Q9UH65)
inactive: [1] -0.027 | [2] 0.039 | [3] 0 | [4] -0.01 | [5] 0 | [6] 0.062 | [7] 0.035 | [8] -0.015 | [9] -0.004 | [10] 0.012 | [11] 0.008 | [12] 0.012 | [13] 0.007 | [14] -0.038 | [15] -0.007

SURF6 (UniProt O75683)
inactive: [1] -0.015 | [2] -0.016 | [3] 0.018 | [4] -0.009 | [5] 0.02 | [6] 0.046 | [7] -0.014 | [8] -0.032 | [9] 0.011 | [10] 0 | [11] -0.02 | [12] 0.13 | [13] 0.015 | [14] -0.01 | [15] 0.018

SUDS3 (UniProt Q9H7L9)
inactive: [1] -0.049 | [2] 0.019 | [3] 0.002 | [4] -0.02 | [5] 0.028 | [6] -0.086 | [7] -0.016 | [8] 0.017 | [9] 0.001 | [10] 0.034 | [11] 0.016 | [12] -0.017 | [13] -0.017 | [14] -0.008 | [15] 0.002
